Values of other authors in US20150110853A1, “TREATMENT OF RADICAL PROSTATECTOMY-INDUCED ERECTILE DYSFUNCTION” (PANACEA PHARMACEUTICALS, priority 2013, published 2015).
At least one structure is not confirmed: it was looked up by name or label, or the drawing left a doubt.

Tested on: cavernous nerve injury
Conditions: adult rat model, following cavernous nerve injury; cited from earlier work

In the case of `C=CC[C@@H]1/C=C(\C)C[C@H](C)C[C@H](OC)[C@H]2O[C@@](O)(C(=O)C(=O)N3CCCC[C@H]3C(=O)O[C@H](/C(C)=C/[C@@H]3CC[C@@H](O)[C@H](OC)C3)[C@H](C)[C@@H](O)CC1=O)[C@H](C)C[C@@H]2OC` [FK506], the “preservation of erectile function” value is listed as “preserve erectile function”.
